The target in series [1] is L7Ae (UniProt O29494). Kind of series: binding assay. As to conditions: CITED RNA. 2005 11(8):1192-200; sequence of cited RNA not given, box C/D motif from listing; purified recombinant protein.
The target in series [2] is L7Ae (UniProt O29494). Kind of series: EMSA. As to conditions: purified recombinant protein. Background: Mobility shift assays separate free from complexed probe on a gel.
For the next series, the target named is L7Ae-Affibody (L7Ae-AFB) (UniProt O29494). The series is described as follows: EMSA. To be noted: purified recombinant protein.
Another series has as its target Dicer (UniProt Q9UPY3). Kind of series: enzyme reaction in vitro. To be noted: positive control, ATP, 37 C 16 h; purified recombinant protein; protein details: recombinant Dicer (Genlantis).

Chains of the proteins cited; added tags and fusions are not shown. Lines headed by an entry give the natural chain unless they say otherwise; changes in a name come on top.
UniProt O29494: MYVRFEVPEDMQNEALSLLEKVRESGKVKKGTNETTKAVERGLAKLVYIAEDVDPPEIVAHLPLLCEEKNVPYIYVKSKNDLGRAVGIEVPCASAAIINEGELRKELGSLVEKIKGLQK
UniProt Q9UPY3: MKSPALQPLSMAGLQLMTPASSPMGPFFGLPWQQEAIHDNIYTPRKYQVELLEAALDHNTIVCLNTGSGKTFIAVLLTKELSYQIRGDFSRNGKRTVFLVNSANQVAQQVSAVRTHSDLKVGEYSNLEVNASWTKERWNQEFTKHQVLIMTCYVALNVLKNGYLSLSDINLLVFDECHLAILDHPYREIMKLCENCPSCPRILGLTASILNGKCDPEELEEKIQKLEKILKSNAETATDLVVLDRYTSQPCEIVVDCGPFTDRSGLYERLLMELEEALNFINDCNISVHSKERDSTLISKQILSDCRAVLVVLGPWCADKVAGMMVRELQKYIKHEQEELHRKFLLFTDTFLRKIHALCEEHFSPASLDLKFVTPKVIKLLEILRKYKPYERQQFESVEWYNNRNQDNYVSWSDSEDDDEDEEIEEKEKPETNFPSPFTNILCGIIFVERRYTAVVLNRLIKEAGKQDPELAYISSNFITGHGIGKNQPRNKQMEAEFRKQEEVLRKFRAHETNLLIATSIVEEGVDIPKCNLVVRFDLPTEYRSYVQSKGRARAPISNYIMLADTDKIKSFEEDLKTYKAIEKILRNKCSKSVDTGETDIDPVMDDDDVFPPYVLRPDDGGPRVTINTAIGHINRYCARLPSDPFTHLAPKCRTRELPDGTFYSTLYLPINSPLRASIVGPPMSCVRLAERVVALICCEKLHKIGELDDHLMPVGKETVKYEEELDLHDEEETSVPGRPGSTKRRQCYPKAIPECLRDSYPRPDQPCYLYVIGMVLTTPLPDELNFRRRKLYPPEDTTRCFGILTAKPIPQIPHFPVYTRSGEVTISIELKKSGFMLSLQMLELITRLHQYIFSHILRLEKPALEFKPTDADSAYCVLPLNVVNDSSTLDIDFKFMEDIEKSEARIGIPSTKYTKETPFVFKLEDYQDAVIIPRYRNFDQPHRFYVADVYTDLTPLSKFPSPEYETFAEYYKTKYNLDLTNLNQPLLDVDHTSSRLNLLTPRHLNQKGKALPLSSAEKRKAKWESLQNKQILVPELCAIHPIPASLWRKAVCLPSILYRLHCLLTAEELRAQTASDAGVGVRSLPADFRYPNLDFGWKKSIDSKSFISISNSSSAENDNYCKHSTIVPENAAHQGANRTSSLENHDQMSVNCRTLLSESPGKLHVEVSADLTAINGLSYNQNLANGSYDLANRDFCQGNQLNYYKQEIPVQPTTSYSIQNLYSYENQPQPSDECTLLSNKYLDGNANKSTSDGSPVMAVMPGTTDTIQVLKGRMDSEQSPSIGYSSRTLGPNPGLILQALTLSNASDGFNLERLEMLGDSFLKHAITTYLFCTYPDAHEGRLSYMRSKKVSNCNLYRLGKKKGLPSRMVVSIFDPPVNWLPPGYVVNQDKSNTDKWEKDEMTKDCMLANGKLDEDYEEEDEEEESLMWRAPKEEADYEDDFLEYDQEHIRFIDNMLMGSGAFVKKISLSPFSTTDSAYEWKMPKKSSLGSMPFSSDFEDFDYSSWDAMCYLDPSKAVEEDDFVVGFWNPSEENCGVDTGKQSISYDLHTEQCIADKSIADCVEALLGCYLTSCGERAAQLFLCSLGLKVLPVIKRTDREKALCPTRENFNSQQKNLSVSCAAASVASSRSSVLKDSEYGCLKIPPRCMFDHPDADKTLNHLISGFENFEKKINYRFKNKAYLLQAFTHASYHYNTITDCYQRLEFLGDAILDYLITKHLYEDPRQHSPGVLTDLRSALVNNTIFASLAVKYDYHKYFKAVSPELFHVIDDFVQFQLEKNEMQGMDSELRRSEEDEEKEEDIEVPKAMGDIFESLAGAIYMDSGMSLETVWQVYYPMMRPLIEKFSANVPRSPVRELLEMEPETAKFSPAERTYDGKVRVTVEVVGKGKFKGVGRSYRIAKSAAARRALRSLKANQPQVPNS

For part of these data: For at least one entry, the source does not settle the construct or the ends of the probe.

On to GGCGUGAUGAGC / GCUCUGACC [Box C/D], for which, in the series with L7Ae [1], the equilibrium dissociation constant (Kd) stood at 0.9 nM.
With “GGACGAGCUGUACACCACACGGACAUGACCACCAAAACUCUGGCGUGAUGAGCUCUUUUACGGUGCUGAUGGGGAGCAGGUCUGACCCGCACGCACGCGGAGGGACCGCAGGCCCUUUCAGGAGGCGUGAUGAGCCAAGCGUGGCGAUAGGUACCAAUAUAAGCGGGCGGCUGCCAUGUAAUCACCAACGGAUAAUUUGCGGUUUGGCGUGAUGAGCUUGAGGUCAACGUCAAGGUUUCGCGGUGC / GGUGUACAGCUCGUCCGCACCGCGAAACCUUGACGUUGACCUCAAGCUCUGACCAAACCGCAAAUUAUCCGUUGGUGAUUACAUGGCAGCCGCCCGCUUAUAUUGGUACCUAUCGCCACGCUUGGCUCUGACCUCCUGAAAGGGCCUGCGGUCCCUCCGCGUGCGUGCGGGUCAGACCUGCUCCCCAUCAGCACCGUAAAAGAGCUCUGACCAGAGUUUUGGUGGUCAUGUCCGUGU [LS-70]”, the binding result in the series with L7Ae [2] (triangle also by HS-AFM) and with L7Ae-Affibody (L7Ae-AFB) was “binds” each time.
As to “GGACGAGCUGUACACCACACGGACAUGACCCAACCAAUUACACCAAAACUCUGGCGUGAUGAGCUCUUUUACGGUGCUGAUGGGGAGCAGGUGUGCCGAUGCUGCGUAUCCGGUCUGACCCGCACGCACGCGGAGGGACCGCAGGCCCUUUCAGGAGGCGUGAUGAGCCAAGCGUGGCGAUAGGUACCAAUCCAAGCCUAAUGGUUGCGGUCGAUAAGCGGGCGGCUGCCAUGUAAUCACCAACGGAUAAUUUGCGGUUUGGCGUGAUGAGCUUGAGGUCAACGAGGAAGUUCGCUCAAGGUUUCGCGGUGC / GGUGUACAGCUCGUCCGCACCGCGAAACCUUGAGCGAACUUCCUCGUUGACCUCAAGCUCUGACCAAACCGCAAAUUAUCCGUUGGUGAUUACAUGGCAGCCGCCCGCUUAUCGACCGCAACCAUUAGGCUUGGAUUGGUACCUAUCGCCACGCUUGGCUCUGACCUCCUGAAAGGGCCUGCGGUCCCUCCGCGUGCGUGCGGGUCAGACCGGAUACGCAGCAUCGGCACACCUGCUCCCCAUCAGCACCGUAAAAGAGCUCUGACCAGAGUUUUGGUGUAAUUGGUUGGGUCAUGUCCGUGU [LS-92]”, the binding result with L7Ae [2] (triangle by HS-AFM somewhat deformed) and in the series with L7Ae-Affibody (L7Ae-AFB) was “binds” in each case.
“GGCAUCAAGGUGAACUUCAAGAUCCAGCAUAGGGAUCUUGAAGUUCACCUUGAUGCCAG [sh-GFP]”: in the series with Dicer, the “activity on this sequence” value is “active”.

As usually defined, the Kd is the constant that tells how readily two partners part at equilibrium.

Source of the values: patent publication US20170327600.
